Measurements reported in the supplement of paper PMC10470496.
Where a name gives a salt, the structure may show the parent alone. Some of the results follow. Many values rest on one well or one pass, so single values are uncertain.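 Three clinical Candida auris isolates (clades III, IV and I) from the CDC resistance isolate bank were grown in RPMI-1640 at 35°C. Growth was background-corrected OD600 relative to same-plate vehicle-only wells. Hits required over 50% inhibition in at least two strains and a plate-corrected B-score above 0.1.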

Experiments:
Test in all cases: growth relative to vehicle control (OD600 ratio) (fraction); higher = less inhibition
Settings in all cases: 24 h
C. auris AR-384 = test system: C. auris AR-384
C. auris AR-386 = test system: C. auris AR-386
C. auris AR-387 = test system: C. auris AR-387

| Structure (SMILES) | growth (C. auris AR-384; 1 µM) | growth (C. auris AR-384; 10 µM) | growth (C. auris AR-386; 1 µM) | growth (C. auris AR-386; 10 µM) | growth (C. auris AR-387; 1 µM) | growth (C. auris AR-387; 10 µM) |
| --- | --- | --- | --- | --- | --- | --- |
| O=C(O)/C=C/c1ccc(Cn2ccnc2)cc1 [Ozagrel HCl] | 1.26 | 1.44 | 1.09 | 1.37 | 1.22 | 1.08 |
| COCCOC(=O)C1=C(C)NC(C)=C(C(=O)OC/C=C/c2ccccc2)C1c1cccc([N+](=O)[O-])c1 (stereo not drawn) [Cilnidipine] | 1.02 | 1.1 | 1.06 | 0.76 | 1 | 0.75 |
| C[C@H](CCC(=O)O)[C@H]1CC[C@H]2[C@@H]3CC[C@@H]4C[C@H](O)CC[C@]4(C)[C@H]3CC[C@]12C [Lithocholic acid] | 0.82 | 0.95 | 1.29 | 0.75 | 0.63 | 0.84 |
| COc1cc(NC(C)CCCN)c2ncccc2c1 (stereo not drawn) [Primaquine Diphosphate] | 1.08 | 1 | 0.91 | 1 | 0.86 | 1.1 |
| COc1ccc(C(=O)c2ccccc2O)c(O)c1 [2,2′-Dihydroxy-4-methoxybenzophenone] | 0.83 | 0.65 | 0.72 | 0.61 | 0.67 | 0.6 |
| CN1CCN2c3ccccc3Cc3ccccc3C2C1 (stereo not drawn) [Mianserin HCl] | 0.86 | 1.27 | 1.09 | 0.54 | 0.84 | 0.7 |
| CC(C)c1c(C(=O)Nc2ccccc2)c(-c2ccccc2)c(-c2ccc(F)cc2)n1CC[C@@H](O)C[C@@H](O)CC(=O)O [Atorvastatin Calcium] | 0.95 | 1.17 | 0.97 | 1.46 | 1.22 | 1.12 |
| CC1CNc2c(cccc2S(=O)(=O)N[C@@H](CCCNC(=N)N)C(=O)N2CC[C@@H](C)C[C@@H]2C(=O)O)C1 (stereo partly drawn) [Argatroban] | 1.06 | 0.83 | 0.87 | 0.93 | 1 | 1.08 |
| CNCCCC12CCC(c3ccccc31)c1ccccc12 [Maprotiline HCl] | 0.91 | 0.82 | 0.6 | 0.77 | 0.81 | 0.98 |
| Oc1ccc(OCc2ccccc2)cc1 [Monobenzone] | 0.91 | 0.54 | 0.77 | 1.11 | 0.81 | 0.92 |
| CC1(O)CCC(C(C)(C)O)CC1 (stereo not drawn) [Terpin hydrate] | 0.75 | 0.81 | 0.69 | 0.54 | 0.59 | 0.73 |
| CC(=O)OC(C)C[N+](C)(C)C (stereo not drawn) [Methacholine chloride] | 1.03 | 0.87 | 1.03 | 0.76 | 0.99 | 0.75 |
| CC(C)C(=O)Nc1ccc([N+](=O)[O-])c(C(F)(F)F)c1 [Flutamide] | 1.2 | 1.03 | 1.09 | 1.17 | 1.17 | 1.08 |
| CCCc1nc(C)c2c(=O)nc(-c3cc(S(=O)(=O)N4CCN(CC)CC4)ccc3OCC)[nH]n12 [Vardenafil HCl Trihydrate] | 1.64 | 1.07 | 0.75 | 0.84 | 0.67 | 0.87 |
| CC(=O)OCC[N+](C)(C)C [Acetylcholine iodide] | 0.73 | 0.73 | 0.63 | 0.97 | 0.7 | 1.13 |
| CCOc1ccccc1OC(c1ccccc1)C1CNCCO1 (stereo not drawn) [Reboxetine mesylate] | 1.15 | 0.81 | 0.91 | 1.08 | 0.64 | 0.98 |
| CCOC(N)=O [Urethane] | 1.15 | 0.88 | 0.89 | 1.06 | 1.07 | 0.75 |
| C[C@H](Nc1ncnc2nc[nH]c12)c1cc2cccc(Cl)c2c(=O)n1-c1ccccc1 [Duvelisib (IPI-145, INK1197)] | 0.71 | 0.75 | 0.86 | 0.55 | 0.55 | 0.52 |
| Cc1cc(-n2c(=O)[nH]c(=O)n(C)c2=O)ccc1Oc1ccc(SC(F)(F)F)cc1 [Toltrazuril] | 0.89 | 0.86 | 0.6 | 0.64 | 0.76 | 0.76 |
| C[C@]12CC[C@@H]3c4ccc(O)cc4CC[C@H]3[C@@H]1CC[C@@H]2O [Estradiol] | 0.89 | 1.02 | 0.7 | 0.79 | 0.69 | 0.83 |
| CCN(CC)CCNC(=O)c1cc(Cl)c(N)cc1OC [Metoclopramide HCl] | 0.78 | 0.73 | 0.58 | 0.87 | 0.71 | 0.47 |
| CC[C@]1(O)C[C@@H]2CN(CCc3c([nH]c4ccccc34)[C@@](C(=O)OC)(c3cc4c(cc3OC)N(C)[C@H]3[C@@](O)(C(=O)OC)[C@H](OC(C)=O)[C@]5(CC)C=CCN6CC[C@]43[C@@H]65)C2)C1 [Vinblastine sulfate] | 1.25 | 0.96 | 1.06 | 1.2 | 1 | 1.09 |
| Cc1onc(-c2c(Cl)cccc2Cl)c1C(=O)N[C@@H]1C(=O)N2[C@@H]1SC(C)(C)[C@@H]2C(=O)O [Dicloxacillin Sodium] | 0.93 | 1.01 | 0.92 | 1.02 | 1.08 | 0.94 |
| CC(=O)[C@H]1CC[C@H]2[C@@H]3CC=C4C[C@@H](O)CC[C@]4(C)[C@H]3CC[C@]12C [Pregnenolone] | 0.68 | 1.1 | 1.34 | 1.09 | 1.03 | 1.01 |

| Structure (SMILES) | growth (C. auris AR-384; 1 µM) | growth (C. auris AR-384; 10 µM) | growth (C. auris AR-386; 1 µM) | growth (C. auris AR-386; 10 µM) | growth (C. auris AR-387; 1 µM) | growth (C. auris AR-387; 10 µM) |
| --- | --- | --- | --- | --- | --- | --- |
| CCN1CCN(C(=O)N[C@@H](C(=O)N[C@@H]2C(=O)N3[C@@H]2SC(C)(C)[C@@H]3C(=O)O)c2ccccc2)C(=O)C1=O [Piperacillin Sodium] | 0.87 | 0.81 | 0.83 | 0.69 | 0.68 | 0.72 |
| CCOC(=O)c1ccc(N)cc1 [Benzocaine hydrochloride] | 0.77 | 0.64 | 0.83 | 0.97 | 0.67 | 0.85 |
| CC(=O)S[C@@H]1CC2=CC(=O)CC[C@]2(C)[C@H]2CC[C@@]3(C)[C@@H](CC[C@@]34CCC(=O)O4)[C@H]12 [Spironolactone] | 0.84 | 0.8 | 0.74 | 0.89 | 0.71 | 0.86 |
| C[C@@H](O[C@H]1OCCN(Cc2n[nH]c(=O)[nH]2)[C@H]1c1ccc(F)cc1)c1cc(C(F)(F)F)cc(C(F)(F)F)c1 [Aprepitant] | 1.05 | 1.18 | 0.98 | 1.19 | 0.76 | 1.01 |
| CCOC(=O)c1ncn2c1CN(C)C(=O)c1cc(F)ccc1-2 [Flumazenil] | 1.03 | 1.29 | 0.96 | 0.74 | 0.67 | 0.84 |
| CCC(C)(Oc1ccc(C2(c3ccc(OC(C)(CC)C(=O)O)cc3)CCCCC2)cc1)C(=O)O (stereo not drawn) [Clinofibrate] | 0.8 | 0.92 | 0.84 | 0.95 | 0.83 | 1.03 |
| Cc1cccc(CN2CCN(C(c3ccccc3)c3ccc(Cl)cc3)CC2)c1 (stereo not drawn) [Meclizine 2HCl] | 0.74 | 0.74 | 0.65 | 0.76 | 0.7 | 0.81 |
| C[C@H](O)C(=O)Nc1c(I)c(C(=O)NC(CO)CO)c(I)c(C(=O)NC(CO)CO)c1I [Iopamidol] | 0.93 | 0.75 | 0.82 | 0.94 | 0.97 | 0.85 |
| NC(=O)NO [Hydroxyurea] | 1.04 | 0.77 | 0.92 | 1.12 | 1 | 1.03 |
| CN(C)[C@@H](CCOc1cccc2ccccc12)c1ccccc1 [Dapoxetine HCl] | 1.05 | 1.16 | 0.95 | 1.08 | 1.4 | 1.08 |
| CN(C)CCC=C1c2ccccc2C=Cc2ccccc21 [Cyclobenzaprine HCl] | 0.86 | 0.69 | 0.7 | 0.71 | 0.74 | 0.91 |
| C#C[C@]1(O)CC[C@H]2[C@@H]3CCC4=CCCC[C@@H]4[C@H]3C(=C)C[C@@]21CC [Desogestrel] | 0.85 | 0.91 | 0.9 | 0.81 | 0.99 | 0.78 |
| Oc1c(Cl)cc(Cl)c2cccnc12 [Chloroxine] | 0.18 | 0 | 0.02 | 0.02 | 0.09 | 0.1 |
| O=c1ccn([C@@H]2O[C@H](CO)[C@@H](O)[C@H]2O)c(=O)[nH]1 [Uridine] | 0.96 | 0.89 | 1 | 0.77 | 0.65 | 0.85 |
| O=C(OCc1ccccc1)c1ccccc1 [Benzyl benzoate] | 0.77 | 0.7 | 0.77 | 0.62 | 0.53 | 0.53 |
| CN(C)CCC[C@@]1(c2ccc(F)cc2)OCc2cc(C#N)ccc21 [Escitalopram Oxalate] | 0.84 | 0.79 | 1.21 | 0.78 | 0.65 | 0.7 |
| CCC/N=C1\S/C(=C\c2ccc(OC[C@H](O)CO)c(Cl)c2)C(=O)N1c1ccccc1C [Ponesimod] | 1.11 | 1.32 | 1.09 | 1 | 0.77 | 0.81 |
| C[C@@H]1CCO[C@H]2Cn3cc(C(=O)NCc4ccc(F)cc4F)c(=O)c(O)c3C(=O)N12 | 0.96 | 1.16 | 0.79 | 1.31 | 0.84 | 0.96 |
| COc1ccccc1OCCNCC(O)COc1cccc2[nH]c3ccccc3c12 (stereo not drawn) [Carvedilol] | 0.76 | 0.92 | 0.91 | 1 | 0.95 | 0.94 |
| CCOc1cc([C@@H](CS(C)(=O)=O)N2C(=O)c3cccc(NC(C)=O)c3C2=O)ccc1OC | 1.19 | 1.34 | 1.18 | 1.33 | 1.04 | 1.16 |
| O=S(=O)(O)c1cc(O)ccc1O [Ethamsylate] | 0.93 | 1.14 | 1.02 | 0.88 | 1.17 | 1.12 |
| CN(C)CCCN1c2ccccc2CCc2ccccc21 [Imipramine HCl] | 0.85 | 0.73 | 0.93 | 0.79 | 0.76 | 0.75 |
| CN(C)CCc1c[nH]c2ccc(C[C@H]3COC(=O)N3)cc12 [Zolmitriptan] | 0.95 | 0.8 | 1 | 0.98 | 0.86 | 0.73 |
| O=C(NC1CCN(CCCCC2(C(=O)NCC(F)(F)F)c3ccccc3-c3ccccc32)CC1)c1ccccc1-c1ccc(C(F)(F)F)cc1 [Lomitapide] | 1.04 | 1.37 | 0.85 | 1.07 | 0.88 | 1.04 |

A section taken from the entries so far, for reference:

| Structure (SMILES) | growth (C. auris AR-384; 1 µM) | growth (C. auris AR-384; 10 µM) | growth (C. auris AR-386; 1 µM) | growth (C. auris AR-386; 10 µM) | growth (C. auris AR-387; 1 µM) | growth (C. auris AR-387; 10 µM) |
| --- | --- | --- | --- | --- | --- | --- |
| NC(=O)NO [Hydroxyurea] | 1.04 | 0.77 | 0.92 | 1.12 | 1 | 1.03 |
| CN(C)[C@@H](CCOc1cccc2ccccc12)c1ccccc1 [Dapoxetine HCl] | 1.05 | 1.16 | 0.95 | 1.08 | 1.4 | 1.08 |
| CN(C)CCC=C1c2ccccc2C=Cc2ccccc21 [Cyclobenzaprine HCl] | 0.86 | 0.69 | 0.7 | 0.71 | 0.74 | 0.91 |
| C#C[C@]1(O)CC[C@H]2[C@@H]3CCC4=CCCC[C@@H]4[C@H]3C(=C)C[C@@]21CC [Desogestrel] | 0.85 | 0.91 | 0.9 | 0.81 | 0.99 | 0.78 |
| Oc1c(Cl)cc(Cl)c2cccnc12 [Chloroxine] | 0.18 | 0 | 0.02 | 0.02 | 0.09 | 0.1 |
| O=c1ccn([C@@H]2O[C@H](CO)[C@@H](O)[C@H]2O)c(=O)[nH]1 [Uridine] | 0.96 | 0.89 | 1 | 0.77 | 0.65 | 0.85 |
| O=C(OCc1ccccc1)c1ccccc1 [Benzyl benzoate] | 0.77 | 0.7 | 0.77 | 0.62 | 0.53 | 0.53 |
| CN(C)CCC[C@@]1(c2ccc(F)cc2)OCc2cc(C#N)ccc21 [Escitalopram Oxalate] | 0.84 | 0.79 | 1.21 | 0.78 | 0.65 | 0.7 |
| CCC/N=C1\S/C(=C\c2ccc(OC[C@H](O)CO)c(Cl)c2)C(=O)N1c1ccccc1C [Ponesimod] | 1.11 | 1.32 | 1.09 | 1 | 0.77 | 0.81 |
| C[C@@H]1CCO[C@H]2Cn3cc(C(=O)NCc4ccc(F)cc4F)c(=O)c(O)c3C(=O)N12 | 0.96 | 1.16 | 0.79 | 1.31 | 0.84 | 0.96 |
| COc1ccccc1OCCNCC(O)COc1cccc2[nH]c3ccccc3c12 (stereo not drawn) [Carvedilol] | 0.76 | 0.92 | 0.91 | 1 | 0.95 | 0.94 |
| CCOc1cc([C@@H](CS(C)(=O)=O)N2C(=O)c3cccc(NC(C)=O)c3C2=O)ccc1OC | 1.19 | 1.34 | 1.18 | 1.33 | 1.04 | 1.16 |
